Assay results taken from paper PMC8965495.
Results are given in words; binding and its absence hold for the method and conditions named. In cells and extracts the contact can be indirect. Some binding calls cover weakened binding; strength is not graded here.

Amino acid sequences for entries named in this document (tags omitted).
UniProt O43524: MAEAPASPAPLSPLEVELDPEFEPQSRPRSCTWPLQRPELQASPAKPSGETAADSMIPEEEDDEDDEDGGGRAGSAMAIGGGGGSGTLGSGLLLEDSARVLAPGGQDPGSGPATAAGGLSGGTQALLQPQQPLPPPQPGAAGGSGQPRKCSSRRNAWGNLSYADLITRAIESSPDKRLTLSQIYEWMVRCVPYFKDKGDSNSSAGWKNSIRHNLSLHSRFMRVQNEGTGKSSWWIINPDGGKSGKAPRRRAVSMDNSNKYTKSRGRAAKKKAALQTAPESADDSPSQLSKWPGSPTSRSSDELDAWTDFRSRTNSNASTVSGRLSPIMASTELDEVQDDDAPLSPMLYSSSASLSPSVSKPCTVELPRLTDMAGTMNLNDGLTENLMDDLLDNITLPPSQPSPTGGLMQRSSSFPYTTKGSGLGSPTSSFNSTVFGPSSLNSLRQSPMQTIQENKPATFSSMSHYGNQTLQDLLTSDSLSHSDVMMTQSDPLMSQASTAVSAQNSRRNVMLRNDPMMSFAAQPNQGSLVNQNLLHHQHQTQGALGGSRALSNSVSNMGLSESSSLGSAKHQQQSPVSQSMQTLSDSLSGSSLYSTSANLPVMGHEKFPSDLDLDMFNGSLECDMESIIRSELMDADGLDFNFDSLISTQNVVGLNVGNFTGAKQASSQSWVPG
UniProt Q6STE5: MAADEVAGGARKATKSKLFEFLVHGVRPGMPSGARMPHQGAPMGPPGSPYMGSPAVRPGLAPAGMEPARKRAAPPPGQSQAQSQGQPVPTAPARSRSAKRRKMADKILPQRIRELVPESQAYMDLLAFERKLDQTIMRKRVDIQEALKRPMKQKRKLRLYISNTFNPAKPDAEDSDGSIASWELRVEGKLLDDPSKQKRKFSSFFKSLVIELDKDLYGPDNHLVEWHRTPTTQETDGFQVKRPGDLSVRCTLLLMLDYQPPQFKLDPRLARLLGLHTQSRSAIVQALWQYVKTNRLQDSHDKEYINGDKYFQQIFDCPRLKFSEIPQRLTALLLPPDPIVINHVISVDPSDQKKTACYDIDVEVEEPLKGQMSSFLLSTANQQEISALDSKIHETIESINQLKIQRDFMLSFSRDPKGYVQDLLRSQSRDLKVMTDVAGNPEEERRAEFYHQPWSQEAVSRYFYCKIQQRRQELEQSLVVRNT
UniProt Q09472: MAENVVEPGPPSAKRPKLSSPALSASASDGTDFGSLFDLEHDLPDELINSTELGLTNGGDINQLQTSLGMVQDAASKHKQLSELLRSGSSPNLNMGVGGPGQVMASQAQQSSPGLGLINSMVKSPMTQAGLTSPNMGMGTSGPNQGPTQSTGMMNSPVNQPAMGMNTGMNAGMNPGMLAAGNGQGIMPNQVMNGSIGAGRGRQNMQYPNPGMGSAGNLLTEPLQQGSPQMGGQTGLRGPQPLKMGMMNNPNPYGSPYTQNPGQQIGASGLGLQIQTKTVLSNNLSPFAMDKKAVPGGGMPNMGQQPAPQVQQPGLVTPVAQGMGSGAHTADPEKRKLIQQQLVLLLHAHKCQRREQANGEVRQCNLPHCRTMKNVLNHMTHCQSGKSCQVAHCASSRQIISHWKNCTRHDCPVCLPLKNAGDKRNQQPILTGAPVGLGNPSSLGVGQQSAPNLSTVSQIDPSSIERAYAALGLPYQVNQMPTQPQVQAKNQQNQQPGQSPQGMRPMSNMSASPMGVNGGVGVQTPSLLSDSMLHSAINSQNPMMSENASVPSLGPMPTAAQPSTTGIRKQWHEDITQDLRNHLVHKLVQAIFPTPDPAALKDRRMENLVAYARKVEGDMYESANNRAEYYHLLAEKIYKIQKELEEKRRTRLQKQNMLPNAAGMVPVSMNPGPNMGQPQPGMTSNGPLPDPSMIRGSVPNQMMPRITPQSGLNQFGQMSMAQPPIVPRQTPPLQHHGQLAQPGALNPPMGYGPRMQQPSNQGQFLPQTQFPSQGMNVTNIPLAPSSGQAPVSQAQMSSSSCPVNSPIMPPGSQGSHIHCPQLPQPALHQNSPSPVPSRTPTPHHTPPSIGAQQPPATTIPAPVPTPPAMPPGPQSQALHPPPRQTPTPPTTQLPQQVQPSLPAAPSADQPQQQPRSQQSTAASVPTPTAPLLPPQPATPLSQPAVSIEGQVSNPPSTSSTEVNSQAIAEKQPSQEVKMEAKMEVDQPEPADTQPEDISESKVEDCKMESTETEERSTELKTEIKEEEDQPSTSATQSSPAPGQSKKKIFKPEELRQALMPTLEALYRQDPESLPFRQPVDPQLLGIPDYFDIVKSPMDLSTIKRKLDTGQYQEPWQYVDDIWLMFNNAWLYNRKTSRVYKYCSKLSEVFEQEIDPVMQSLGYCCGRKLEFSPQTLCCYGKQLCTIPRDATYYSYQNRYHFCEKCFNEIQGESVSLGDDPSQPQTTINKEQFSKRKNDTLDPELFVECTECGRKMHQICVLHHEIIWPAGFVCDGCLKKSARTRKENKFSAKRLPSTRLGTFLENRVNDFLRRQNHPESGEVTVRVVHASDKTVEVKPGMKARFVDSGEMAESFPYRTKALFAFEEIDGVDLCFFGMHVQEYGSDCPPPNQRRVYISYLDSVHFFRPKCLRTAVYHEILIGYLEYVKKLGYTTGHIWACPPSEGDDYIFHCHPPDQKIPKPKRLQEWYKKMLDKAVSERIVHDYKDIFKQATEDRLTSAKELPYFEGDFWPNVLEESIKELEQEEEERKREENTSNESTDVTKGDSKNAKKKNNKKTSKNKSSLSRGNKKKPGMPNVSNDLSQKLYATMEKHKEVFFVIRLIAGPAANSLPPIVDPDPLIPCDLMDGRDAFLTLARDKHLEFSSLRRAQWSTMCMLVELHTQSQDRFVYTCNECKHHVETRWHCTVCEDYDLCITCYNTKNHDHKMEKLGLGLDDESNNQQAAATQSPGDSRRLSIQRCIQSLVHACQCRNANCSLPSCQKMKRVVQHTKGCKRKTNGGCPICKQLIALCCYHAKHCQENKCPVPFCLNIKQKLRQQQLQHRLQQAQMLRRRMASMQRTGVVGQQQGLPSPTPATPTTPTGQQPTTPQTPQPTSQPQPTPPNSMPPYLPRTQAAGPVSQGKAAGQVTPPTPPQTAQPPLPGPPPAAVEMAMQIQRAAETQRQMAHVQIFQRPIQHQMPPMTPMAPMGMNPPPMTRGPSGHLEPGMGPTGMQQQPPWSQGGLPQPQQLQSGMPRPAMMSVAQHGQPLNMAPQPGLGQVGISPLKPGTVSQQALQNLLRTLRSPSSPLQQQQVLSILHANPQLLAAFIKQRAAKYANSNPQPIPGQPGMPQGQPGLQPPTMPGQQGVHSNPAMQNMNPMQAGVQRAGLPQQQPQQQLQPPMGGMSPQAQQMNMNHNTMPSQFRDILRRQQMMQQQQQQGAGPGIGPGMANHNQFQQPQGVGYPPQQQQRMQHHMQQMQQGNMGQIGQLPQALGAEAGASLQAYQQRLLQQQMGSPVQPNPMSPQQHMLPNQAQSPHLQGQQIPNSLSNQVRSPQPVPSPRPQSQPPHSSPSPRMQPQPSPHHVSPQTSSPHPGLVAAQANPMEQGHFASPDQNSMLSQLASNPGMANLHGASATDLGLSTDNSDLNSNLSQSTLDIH

Key:
[1] = molecular target: FOXO3 (human (endogenous in MDA-MB-231)) (UniProt O43524); experiment: co-IP; as a1, but nuclear protein lysate of MDA-MB-231 A2BR knockdown subclone treated with vehicle or 10 nM paclitaxel for 72 h; IP with FOXO3 antibody; immunoblot
[2] = molecular target: FOXO3 (human (endogenous in MDA-MB-231)) (UniProt O43524); experiment: co-IP; 500 ug nuclear protein lysate of MDA-MB-231 NTC subclone treated with vehicle or 10 nM paclitaxel for 72 h; IP with FOXO3 antibody or control IgG, protein G-Sepharose, 4 C overnight; immunoblot
[3] = molecular target: chromatin remodeling factor SMARCD3 (human (endogenous in MDA-MB-231)) (UniProt Q6STE5); experiment: co-IP; 500 ug nuclear protein lysate of MDA-MB-231 NTC or A2BR knockdown subclones treated with vehicle or 10 nM paclitaxel for 72 h; IP with SMARCD3 antibody or control IgG, protein G-Sepharose, 4 C overnight; immunoblot

binding [2]: binds
binding [3]: binds
Substance: histone acetyltransferase p300 (from UniProt Q09472 1-2414) (enzyme)
binding [1]: no binding (condition: in the A2BR knockdown subclone)
